The target of assay [1] is His-labeled recombinant NELL2 (UniProt Q61220). The assay is described as follows: pull-down; BMSC membrane proteins incubated with His-labeled recombinant NELL2 and anti-His antibody, protein A/G magnetic beads, room temperature 30 min; Western blotting for Fn1; only the target purified. In general terms: A western blot detects proteins with antibodies after separation by electrophoresis.

Amino acid sequences for entries named in this document (tags omitted). A change or cut given only in a name is not applied to a line headed by its entry. Chains listed by the source or under a name are the forms on record and can include a tag or linker.
UniProt P11276: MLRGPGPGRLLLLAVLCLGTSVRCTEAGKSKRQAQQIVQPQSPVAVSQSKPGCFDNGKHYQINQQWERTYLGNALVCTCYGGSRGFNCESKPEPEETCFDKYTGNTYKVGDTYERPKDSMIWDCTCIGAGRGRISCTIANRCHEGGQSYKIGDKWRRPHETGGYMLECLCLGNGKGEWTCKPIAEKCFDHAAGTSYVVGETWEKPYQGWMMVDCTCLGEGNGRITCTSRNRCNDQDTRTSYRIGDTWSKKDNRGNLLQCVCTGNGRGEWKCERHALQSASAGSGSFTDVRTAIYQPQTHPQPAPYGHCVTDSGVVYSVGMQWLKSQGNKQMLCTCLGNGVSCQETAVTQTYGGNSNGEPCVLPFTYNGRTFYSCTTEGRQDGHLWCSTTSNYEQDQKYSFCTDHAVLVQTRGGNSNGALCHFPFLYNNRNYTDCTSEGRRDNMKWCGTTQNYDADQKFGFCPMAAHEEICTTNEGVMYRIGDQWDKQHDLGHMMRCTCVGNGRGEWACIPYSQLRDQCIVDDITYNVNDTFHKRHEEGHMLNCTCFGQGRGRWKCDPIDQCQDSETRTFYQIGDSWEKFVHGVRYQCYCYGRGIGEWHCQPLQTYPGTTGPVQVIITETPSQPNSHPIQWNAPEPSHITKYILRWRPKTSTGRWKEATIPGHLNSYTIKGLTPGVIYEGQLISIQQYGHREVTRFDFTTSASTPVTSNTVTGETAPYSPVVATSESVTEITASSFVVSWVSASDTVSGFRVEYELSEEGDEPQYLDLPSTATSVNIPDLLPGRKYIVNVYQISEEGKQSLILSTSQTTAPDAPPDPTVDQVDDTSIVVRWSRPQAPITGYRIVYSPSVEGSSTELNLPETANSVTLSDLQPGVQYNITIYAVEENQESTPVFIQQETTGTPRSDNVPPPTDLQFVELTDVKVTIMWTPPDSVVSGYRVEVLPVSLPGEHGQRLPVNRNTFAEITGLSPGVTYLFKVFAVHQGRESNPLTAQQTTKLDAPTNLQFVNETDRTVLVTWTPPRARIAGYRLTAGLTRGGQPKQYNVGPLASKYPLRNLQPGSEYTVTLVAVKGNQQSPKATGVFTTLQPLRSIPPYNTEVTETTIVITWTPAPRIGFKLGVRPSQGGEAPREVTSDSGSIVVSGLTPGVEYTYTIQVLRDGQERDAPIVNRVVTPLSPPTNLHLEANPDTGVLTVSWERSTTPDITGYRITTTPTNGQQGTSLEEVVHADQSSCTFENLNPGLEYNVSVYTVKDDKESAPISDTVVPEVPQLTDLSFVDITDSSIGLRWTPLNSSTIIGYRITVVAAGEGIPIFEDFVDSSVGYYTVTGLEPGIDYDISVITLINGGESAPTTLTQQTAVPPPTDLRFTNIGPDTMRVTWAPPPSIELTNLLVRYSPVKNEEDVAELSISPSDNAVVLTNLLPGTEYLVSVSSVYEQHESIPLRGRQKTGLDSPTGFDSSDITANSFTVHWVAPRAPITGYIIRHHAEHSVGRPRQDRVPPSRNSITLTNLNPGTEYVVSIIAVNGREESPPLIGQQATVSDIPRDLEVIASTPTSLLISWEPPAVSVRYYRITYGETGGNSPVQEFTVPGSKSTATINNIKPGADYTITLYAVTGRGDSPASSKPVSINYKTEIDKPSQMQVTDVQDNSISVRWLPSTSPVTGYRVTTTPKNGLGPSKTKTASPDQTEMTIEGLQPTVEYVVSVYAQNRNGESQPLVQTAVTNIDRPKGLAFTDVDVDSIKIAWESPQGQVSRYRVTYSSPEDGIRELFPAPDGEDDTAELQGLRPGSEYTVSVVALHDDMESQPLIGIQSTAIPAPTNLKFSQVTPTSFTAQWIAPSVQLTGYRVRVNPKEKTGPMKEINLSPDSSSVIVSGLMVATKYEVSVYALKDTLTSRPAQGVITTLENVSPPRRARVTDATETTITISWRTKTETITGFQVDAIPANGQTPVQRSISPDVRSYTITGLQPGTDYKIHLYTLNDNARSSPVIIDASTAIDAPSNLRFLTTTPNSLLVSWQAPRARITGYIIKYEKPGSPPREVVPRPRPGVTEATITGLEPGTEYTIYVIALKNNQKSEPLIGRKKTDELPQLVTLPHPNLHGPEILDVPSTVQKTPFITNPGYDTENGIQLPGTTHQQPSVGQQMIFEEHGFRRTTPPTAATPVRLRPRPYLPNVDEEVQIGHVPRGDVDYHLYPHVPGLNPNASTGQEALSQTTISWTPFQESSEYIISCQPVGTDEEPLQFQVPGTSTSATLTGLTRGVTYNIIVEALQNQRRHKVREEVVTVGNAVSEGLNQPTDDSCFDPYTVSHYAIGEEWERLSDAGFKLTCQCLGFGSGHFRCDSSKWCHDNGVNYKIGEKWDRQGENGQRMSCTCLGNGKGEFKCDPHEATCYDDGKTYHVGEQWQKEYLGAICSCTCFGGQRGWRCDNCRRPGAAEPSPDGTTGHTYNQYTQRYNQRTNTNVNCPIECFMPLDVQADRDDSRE
Fn1 truncation mutant lacking FNI (2296-2425 aa) (P11276, form named): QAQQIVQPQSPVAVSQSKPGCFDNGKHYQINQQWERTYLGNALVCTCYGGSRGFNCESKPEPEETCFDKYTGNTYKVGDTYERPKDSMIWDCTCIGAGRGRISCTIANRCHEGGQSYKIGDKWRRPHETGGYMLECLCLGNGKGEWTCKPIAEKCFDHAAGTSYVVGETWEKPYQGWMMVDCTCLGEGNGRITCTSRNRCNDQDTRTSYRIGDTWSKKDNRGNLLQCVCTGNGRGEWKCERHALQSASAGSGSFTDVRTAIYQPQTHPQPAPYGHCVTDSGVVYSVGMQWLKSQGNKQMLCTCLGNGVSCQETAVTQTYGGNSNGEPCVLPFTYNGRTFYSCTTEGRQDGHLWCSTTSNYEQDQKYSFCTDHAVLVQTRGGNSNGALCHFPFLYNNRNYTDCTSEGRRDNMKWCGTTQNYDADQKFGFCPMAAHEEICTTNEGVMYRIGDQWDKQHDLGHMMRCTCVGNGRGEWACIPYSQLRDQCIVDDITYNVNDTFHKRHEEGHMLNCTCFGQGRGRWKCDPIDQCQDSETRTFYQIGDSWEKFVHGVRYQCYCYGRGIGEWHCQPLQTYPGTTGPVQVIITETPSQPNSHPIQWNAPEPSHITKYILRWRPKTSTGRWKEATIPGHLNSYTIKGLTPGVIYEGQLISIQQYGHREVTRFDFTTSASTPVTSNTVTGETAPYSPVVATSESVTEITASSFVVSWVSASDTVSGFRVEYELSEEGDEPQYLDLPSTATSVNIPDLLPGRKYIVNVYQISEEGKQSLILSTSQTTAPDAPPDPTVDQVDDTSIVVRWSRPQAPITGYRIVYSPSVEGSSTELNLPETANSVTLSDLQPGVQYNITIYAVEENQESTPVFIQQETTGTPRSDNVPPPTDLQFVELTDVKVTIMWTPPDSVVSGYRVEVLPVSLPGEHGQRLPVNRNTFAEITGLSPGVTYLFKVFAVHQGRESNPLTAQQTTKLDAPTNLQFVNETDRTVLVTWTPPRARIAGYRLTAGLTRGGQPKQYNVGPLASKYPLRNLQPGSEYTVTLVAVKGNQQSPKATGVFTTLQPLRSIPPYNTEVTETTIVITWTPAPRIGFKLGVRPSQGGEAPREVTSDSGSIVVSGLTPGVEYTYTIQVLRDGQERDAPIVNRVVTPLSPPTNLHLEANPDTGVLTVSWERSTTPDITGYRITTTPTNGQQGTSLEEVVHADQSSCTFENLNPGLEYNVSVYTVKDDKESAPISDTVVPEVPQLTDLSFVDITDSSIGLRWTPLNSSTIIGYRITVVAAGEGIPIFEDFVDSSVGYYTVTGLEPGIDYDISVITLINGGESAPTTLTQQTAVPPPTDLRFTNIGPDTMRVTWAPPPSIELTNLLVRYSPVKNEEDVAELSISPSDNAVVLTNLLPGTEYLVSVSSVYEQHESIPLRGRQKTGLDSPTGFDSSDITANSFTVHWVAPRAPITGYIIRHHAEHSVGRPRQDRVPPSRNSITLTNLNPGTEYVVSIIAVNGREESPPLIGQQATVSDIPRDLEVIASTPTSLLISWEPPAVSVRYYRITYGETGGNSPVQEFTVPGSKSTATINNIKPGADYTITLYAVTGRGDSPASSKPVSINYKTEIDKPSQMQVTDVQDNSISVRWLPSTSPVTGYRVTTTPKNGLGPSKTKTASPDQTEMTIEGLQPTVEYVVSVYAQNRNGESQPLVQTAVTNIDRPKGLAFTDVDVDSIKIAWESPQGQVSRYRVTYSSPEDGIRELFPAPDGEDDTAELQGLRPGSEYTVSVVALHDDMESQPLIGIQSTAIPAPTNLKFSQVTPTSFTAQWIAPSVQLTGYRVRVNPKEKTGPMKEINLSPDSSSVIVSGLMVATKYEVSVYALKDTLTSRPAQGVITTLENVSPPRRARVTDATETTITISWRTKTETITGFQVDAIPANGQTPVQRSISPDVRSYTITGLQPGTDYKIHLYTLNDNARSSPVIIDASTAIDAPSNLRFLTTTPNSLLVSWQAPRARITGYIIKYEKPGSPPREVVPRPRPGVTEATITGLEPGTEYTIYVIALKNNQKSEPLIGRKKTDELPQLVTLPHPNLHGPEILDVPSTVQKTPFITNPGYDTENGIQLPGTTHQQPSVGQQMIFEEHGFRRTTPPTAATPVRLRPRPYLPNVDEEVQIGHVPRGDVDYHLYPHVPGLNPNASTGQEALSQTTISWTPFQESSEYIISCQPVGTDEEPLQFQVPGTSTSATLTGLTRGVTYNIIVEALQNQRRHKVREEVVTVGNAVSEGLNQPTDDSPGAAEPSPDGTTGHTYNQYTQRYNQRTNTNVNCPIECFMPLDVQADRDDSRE

The target in the next assay is NELL2-Myc (in ST2 cells) (UniProt Q61220). The assay is described as follows: co-IP; ST2 cells transfected with NELL2-Myc with or without Fn1 siRNA; immunoprecipitation with anti-Myc antibody; endogenous Fn1 and ITGB1 detected.
The target of a further assay is Fn1 C-terminal-HA (UniProt P11276). The assay can be described thus: co-IP; 293 T cells co-transfected with Myc- and HA-tagged constructs; lysates immunoprecipitated with protein A/G magnetic beads conjugated with anti-HA or anti-Myc; Western blotting with anti-Myc or anti-HA.
The target of assay [2] is Fn1-HA (UniProt P11276). The description is as above.
For assay [3], the target named is NELL2-Myc (UniProt Q61220). The assay is described as follows: co-IP; 293 T cells co-transfected with NELL2-Myc (1 μg) and Fn1-HA (1 μg) along with 0-2 μg of Fn1 C-terminal-HA construct; immunoprecipitation with anti-Myc, Western blotting with anti-HA and anti-Myc.
Assay [4] has as its target NELL2-Myc (UniProt Q61220). The assay can be described thus: co-IP; 293 T cells co-transfected with Myc- and HA-tagged constructs; lysates immunoprecipitated with protein A/G magnetic beads conjugated with anti-HA or anti-Myc; Western blotting with anti-Myc or anti-HA.
In assay [5] the target is Fn1-HA (UniProt P11276). The description is as above. The source holds these as a separate data set.

Read-outs that look alike come from different tables or passages of the source. These are yes or no findings as the source states them, for the method shown. In cells and extracts the contact can be indirect. Some binding calls cover weakened binding; strength is not graded here. For part of these data: Sequences can lack the tags named with a protein.

Regarding “Fibronectin 1 (Fn1), endogenous in BMSC membrane proteins (from UniProt P11276 33-2477)”, the binding result in assay [1] is given as “binds”.

Take “Fibronectin 1 (Fn1), endogenous in ST2 cells (from UniProt P11276 33-2477)”: the binding entry in the assay with NELL2-Myc (in ST2 cells) was “binds”.

Consider NELL2-Myc (from UniProt Q61220 25-819), for which the binding result with Fn1 C-terminal-HA and in the assay with Fn1-HA [2] was “binds” throughout.

In the case of Fn1-HA (from UniProt P11276 33-2477), the binding result with NELL2-Myc [3] and in the assay with NELL2-Myc [4] was “binds” throughout.

Consider “Fn1 C-terminal-HA (from UniProt P11276 2296-2425) (domain or fragment)”, for which the binding entry with NELL2-Myc [4] is listed as “binds”.

As for “Fn1 truncation mutant lacking FNI (2296-2425 aa) (from UniProt P11276 33-2477)”, the binding entry in the assay with NELL2-Myc [4] was “binds”.

B1: NELL2-Myc truncate lacking the EGF-like (406-644 aa) domain (protein, UniProt Q61220)
chain: LGVDPSLQIDVLTELELGESTDGVRQVPGLHNGTKAFLFQESPRSIKASTATAERFFQKLRNKHEFTILVTLKQIHLNSGVILSIHHLDHRYLELESSGHRNEIRLHYRSGTHRPHTEVFPYILADAKWHKLSLAFSASHLILHIDCNKIYERVVEMPSTDLPLGTTFWLGQRNNAHGYFKGIMQDVHVLVMPQGFIAQCPDLNRTCPTCNDFHGLVQKIMELQDILSKTSAKLSRAEQRMNRLDQCYCERTCTVKGTTYRESESWTDGCKNCTCLNGTIQCETLVCPAPDCPPKSAPAYVDGKCCKECKSTCQFQGRSYFEGERNTVYSSSGMCVLYECKDQTMKLVENIGCPPLDCPESHQIALSHSCCKVCKGYDFCSHEGKVKHTGQIWVLENDRCSVCSCQTGFVMCRRMVCDCENPTVDLSCCPECDPRLSSQCLHQNGETVYNSGDTWVQDCRQCRCLQGEVDCWPLACPEVECEFSVLPENECCPRCVTDPCQADTIRNDITKTCLDEMNVVRFTGSSWIKHGTECTLCQCKNGHLCCSVDPQCLQEL
Consider B1, for which, in the assay with Fn1-HA [5], the binding result is given as “binds”.

Source of the values: paper PMC11986068.
